Like-named read-outs stand apart in the source and are kept apart here.
Legend:
[1] = in 2 to 3 ml of water, normal saline, ipotropium bromide solution or budesonide solution
[2] = tested on: patients with reversible obstructive respiratory diseases; settings: cited from earlier work; for duration of action (bronchodilation): patients with asthma and related respiratory illnesses, inhalation

COc1ccc(CC(C)NCC(O)c2ccc(O)c(NC=O)c2)cc1 (stereo not shown) [formoterol, N-[2-hydroxy-5-(1-hydroxy-2-((2-(4-methoxyphenyl)-1-methylethyl)-amino)-ethyl)phenyl]formamide]
dissolution of unit dose [1]: dissolves instantly
onset of action ([2]; after inhalation): 1 to 3 min
duration of action (bronchodilation) [2]: ≥ 12 h
duration of action (bronchodilation) ([2]; listed as Formoterol): up to 12 hours

From patent US20080319079A1, “Method for Administering Formoterol Using a Nebulizer” (priority 2006, published 2008)
